From the supplement of paper PMC10849652
The other results are listed elsewhere or left out.

The chains behind the UniProt entries cited, without tags or fusion partners. Where a name states a change or a piece, a line headed by the entry shows the natural chain unless it says otherwise.
UniProt Q9BRP1: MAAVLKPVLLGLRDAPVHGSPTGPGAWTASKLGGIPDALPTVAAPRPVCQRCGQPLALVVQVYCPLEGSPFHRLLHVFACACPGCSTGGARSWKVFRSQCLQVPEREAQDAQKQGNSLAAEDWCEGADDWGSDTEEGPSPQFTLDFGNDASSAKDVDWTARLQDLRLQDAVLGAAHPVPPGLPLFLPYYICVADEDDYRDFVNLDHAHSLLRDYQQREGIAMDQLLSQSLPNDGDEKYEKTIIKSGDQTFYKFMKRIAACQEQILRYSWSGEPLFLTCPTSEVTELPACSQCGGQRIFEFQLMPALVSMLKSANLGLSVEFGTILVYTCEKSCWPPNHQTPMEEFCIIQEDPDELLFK
UniProt P12955: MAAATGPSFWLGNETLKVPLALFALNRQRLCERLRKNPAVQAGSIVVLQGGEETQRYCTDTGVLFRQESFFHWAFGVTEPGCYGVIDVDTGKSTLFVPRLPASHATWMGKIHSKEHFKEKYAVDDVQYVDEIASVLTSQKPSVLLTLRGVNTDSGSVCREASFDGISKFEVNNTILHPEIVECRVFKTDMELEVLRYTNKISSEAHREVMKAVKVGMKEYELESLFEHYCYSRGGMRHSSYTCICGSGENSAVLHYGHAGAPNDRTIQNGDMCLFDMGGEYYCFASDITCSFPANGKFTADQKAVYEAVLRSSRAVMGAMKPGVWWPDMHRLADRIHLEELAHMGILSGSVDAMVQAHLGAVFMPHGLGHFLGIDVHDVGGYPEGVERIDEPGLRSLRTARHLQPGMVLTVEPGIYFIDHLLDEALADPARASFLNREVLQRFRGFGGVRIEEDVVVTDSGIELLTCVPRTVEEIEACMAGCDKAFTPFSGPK
UniProt P11177, whole entry, looked up: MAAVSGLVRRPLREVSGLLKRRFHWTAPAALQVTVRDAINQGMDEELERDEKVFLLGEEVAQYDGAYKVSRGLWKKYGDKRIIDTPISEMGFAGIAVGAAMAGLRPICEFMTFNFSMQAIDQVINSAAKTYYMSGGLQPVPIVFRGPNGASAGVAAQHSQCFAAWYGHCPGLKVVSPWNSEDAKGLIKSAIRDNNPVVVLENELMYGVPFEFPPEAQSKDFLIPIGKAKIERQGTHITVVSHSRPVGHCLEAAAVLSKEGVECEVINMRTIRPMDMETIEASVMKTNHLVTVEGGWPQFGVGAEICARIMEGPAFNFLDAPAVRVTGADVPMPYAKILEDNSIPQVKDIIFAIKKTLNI
UniProt Q96RG2: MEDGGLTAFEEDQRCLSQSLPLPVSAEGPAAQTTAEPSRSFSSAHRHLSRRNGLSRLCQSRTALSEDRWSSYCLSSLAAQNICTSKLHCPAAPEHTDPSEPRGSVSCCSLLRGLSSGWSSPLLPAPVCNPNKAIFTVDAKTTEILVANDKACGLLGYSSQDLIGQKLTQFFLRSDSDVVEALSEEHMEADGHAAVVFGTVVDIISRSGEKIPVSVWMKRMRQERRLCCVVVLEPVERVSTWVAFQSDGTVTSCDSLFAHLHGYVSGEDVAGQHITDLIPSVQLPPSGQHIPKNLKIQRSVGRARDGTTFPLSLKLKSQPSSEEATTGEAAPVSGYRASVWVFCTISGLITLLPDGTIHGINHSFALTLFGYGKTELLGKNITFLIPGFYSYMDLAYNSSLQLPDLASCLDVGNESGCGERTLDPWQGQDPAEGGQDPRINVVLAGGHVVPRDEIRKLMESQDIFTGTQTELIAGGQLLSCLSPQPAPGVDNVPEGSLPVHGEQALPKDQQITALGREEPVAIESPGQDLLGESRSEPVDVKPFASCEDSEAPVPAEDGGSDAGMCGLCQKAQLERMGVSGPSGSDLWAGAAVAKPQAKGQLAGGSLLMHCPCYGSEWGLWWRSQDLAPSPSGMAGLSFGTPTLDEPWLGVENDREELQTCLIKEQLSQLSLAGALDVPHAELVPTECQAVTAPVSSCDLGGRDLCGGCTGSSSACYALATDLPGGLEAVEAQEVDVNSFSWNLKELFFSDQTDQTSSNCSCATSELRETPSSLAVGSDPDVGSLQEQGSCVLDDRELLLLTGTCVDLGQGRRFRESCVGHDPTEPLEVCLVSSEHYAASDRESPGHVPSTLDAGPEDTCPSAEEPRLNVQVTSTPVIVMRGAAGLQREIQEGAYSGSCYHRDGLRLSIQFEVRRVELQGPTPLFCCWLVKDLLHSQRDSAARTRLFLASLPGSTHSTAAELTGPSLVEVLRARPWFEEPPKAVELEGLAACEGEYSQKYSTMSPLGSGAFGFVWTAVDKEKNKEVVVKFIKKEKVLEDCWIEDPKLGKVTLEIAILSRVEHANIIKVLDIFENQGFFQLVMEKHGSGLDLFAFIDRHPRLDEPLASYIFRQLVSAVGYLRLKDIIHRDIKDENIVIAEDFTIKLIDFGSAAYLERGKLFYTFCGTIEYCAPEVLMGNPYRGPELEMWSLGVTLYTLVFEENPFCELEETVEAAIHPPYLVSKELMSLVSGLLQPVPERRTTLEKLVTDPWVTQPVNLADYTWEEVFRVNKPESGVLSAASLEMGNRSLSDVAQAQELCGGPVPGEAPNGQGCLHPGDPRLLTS
UniProt O15530: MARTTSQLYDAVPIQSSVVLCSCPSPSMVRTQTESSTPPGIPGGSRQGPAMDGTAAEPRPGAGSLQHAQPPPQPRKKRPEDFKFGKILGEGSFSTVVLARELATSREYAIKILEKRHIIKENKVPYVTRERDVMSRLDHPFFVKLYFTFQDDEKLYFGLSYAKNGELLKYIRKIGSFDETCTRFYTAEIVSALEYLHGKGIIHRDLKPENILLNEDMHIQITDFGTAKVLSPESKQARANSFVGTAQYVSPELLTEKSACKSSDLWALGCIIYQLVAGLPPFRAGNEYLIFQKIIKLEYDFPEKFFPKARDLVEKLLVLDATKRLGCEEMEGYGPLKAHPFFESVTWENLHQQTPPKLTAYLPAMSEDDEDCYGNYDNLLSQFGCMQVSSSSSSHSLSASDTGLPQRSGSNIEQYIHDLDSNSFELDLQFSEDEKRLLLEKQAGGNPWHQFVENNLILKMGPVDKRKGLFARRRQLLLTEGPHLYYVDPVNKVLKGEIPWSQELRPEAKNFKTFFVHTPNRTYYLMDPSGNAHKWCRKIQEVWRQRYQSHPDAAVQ
UniProt P0DJ07: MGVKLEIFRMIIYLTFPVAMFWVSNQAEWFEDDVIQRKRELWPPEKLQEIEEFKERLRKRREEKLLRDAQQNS
UniProt Q6P996: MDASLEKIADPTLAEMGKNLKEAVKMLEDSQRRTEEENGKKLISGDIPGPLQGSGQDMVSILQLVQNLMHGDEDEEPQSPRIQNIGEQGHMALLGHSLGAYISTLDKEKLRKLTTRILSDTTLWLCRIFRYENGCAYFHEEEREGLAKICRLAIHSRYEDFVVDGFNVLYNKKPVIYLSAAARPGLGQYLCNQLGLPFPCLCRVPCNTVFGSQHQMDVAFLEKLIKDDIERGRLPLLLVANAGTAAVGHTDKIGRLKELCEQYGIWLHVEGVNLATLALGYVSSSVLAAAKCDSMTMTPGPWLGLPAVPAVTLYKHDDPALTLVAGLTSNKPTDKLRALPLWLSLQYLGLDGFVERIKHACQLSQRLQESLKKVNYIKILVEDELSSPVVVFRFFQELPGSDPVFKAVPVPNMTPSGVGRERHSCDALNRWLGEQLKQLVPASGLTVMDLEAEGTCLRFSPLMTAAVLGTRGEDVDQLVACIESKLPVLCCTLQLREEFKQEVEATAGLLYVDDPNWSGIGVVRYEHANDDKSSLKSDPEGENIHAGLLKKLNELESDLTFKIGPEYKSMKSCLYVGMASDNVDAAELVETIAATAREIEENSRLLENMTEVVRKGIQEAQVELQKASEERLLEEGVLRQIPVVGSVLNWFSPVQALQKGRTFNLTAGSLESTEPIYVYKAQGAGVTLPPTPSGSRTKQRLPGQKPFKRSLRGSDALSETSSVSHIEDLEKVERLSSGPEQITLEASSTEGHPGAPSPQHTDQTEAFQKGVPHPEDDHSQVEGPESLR
UniProt O96011, whole entry, looked up, stated change not applied: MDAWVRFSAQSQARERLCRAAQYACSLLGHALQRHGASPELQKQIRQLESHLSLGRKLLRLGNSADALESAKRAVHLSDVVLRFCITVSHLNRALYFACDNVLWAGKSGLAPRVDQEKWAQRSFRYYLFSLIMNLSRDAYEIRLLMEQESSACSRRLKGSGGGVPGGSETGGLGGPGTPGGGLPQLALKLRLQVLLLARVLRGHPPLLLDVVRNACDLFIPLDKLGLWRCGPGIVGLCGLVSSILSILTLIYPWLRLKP
UniProt Q6L8Q7: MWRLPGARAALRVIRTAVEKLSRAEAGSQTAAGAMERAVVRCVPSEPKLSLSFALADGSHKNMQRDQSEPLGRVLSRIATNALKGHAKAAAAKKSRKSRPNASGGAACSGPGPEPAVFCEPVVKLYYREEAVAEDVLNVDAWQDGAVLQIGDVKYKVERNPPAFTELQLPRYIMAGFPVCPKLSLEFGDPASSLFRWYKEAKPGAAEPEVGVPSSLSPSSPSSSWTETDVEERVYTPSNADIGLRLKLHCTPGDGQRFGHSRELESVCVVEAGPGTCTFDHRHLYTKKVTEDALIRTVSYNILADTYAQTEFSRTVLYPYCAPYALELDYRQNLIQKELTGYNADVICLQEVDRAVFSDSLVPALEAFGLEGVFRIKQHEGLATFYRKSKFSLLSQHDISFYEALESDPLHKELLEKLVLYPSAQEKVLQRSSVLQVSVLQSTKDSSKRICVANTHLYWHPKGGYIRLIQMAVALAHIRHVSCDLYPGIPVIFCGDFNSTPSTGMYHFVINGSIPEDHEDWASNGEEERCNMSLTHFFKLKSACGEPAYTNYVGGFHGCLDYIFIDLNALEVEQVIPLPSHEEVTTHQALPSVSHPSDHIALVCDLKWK
UniProt O00541, whole entry, looked up: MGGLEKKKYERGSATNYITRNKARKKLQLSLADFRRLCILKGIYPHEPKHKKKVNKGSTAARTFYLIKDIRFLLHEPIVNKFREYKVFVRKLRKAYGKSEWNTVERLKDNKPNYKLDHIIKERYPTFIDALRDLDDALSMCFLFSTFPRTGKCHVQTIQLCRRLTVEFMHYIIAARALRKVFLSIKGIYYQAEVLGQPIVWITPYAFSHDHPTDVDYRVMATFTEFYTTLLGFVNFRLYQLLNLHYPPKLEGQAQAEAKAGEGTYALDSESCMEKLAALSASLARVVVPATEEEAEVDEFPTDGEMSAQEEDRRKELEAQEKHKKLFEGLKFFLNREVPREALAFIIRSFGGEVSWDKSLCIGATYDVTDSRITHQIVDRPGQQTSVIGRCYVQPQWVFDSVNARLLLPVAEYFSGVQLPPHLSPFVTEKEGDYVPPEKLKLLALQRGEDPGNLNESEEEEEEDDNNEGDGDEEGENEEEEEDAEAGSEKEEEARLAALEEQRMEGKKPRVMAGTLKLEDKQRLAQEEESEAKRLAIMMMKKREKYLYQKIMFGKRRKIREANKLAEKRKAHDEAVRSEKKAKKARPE
UniProt P68402: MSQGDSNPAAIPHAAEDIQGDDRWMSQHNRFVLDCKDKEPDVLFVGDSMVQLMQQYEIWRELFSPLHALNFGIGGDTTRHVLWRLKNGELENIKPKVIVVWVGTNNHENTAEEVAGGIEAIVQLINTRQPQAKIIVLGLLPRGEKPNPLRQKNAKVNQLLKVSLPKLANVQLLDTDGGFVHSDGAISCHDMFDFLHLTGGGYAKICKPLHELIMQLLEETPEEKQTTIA
UniProt Q96AQ6: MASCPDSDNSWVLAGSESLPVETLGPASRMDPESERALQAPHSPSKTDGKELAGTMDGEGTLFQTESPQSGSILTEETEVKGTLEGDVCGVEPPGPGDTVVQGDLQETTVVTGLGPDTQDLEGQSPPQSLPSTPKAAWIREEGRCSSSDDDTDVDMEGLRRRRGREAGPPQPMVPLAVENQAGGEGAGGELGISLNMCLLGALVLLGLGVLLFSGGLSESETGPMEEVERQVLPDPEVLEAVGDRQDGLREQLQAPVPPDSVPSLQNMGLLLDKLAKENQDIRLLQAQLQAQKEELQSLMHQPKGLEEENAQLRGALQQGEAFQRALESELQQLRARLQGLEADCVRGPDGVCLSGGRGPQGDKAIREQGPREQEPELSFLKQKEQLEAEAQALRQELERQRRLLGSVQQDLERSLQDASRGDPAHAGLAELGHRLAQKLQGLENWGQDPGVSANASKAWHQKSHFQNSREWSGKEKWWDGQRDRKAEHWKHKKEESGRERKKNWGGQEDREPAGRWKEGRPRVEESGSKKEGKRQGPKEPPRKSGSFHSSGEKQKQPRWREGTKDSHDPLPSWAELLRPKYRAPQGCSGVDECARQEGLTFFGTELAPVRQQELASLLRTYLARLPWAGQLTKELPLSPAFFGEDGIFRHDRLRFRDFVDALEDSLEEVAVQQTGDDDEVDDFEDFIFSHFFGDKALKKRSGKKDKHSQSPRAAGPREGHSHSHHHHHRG
UniProt Q9BPZ3: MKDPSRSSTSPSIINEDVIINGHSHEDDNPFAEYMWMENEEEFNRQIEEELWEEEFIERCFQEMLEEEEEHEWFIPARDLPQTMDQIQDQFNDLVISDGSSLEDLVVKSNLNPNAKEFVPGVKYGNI

Experiments:
Assay in all cases: log2 fold change, soluble protein after heating vs DMSO (PISA); higher = thermal stabilisation; K562 cells, 10 uM, 30 min; active = over 0.2 and 3.5 SD of the protein, either way, in both replicates (recomputed)
[1] = compound: COC1=CC=C(C=C1)CN2C=CC3=C2C=C(C=C3)C(=O)NO
Method in brief: (§1)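 K562 cells at 2×10^6 cells/mL were treated with 10 μM compound for 30 min. Aliquots were heated for 3 min across 48°C-58°C, pooled, and extracted in PBS with 0.5% NP-40 at 4°C; soluble protein was the supernatant after 21,000xg for 90 min. Soluble protein was quantified by TMTpro 16plex LC-MS/MS with channel sums equalised, and reported as log2 fold change in thermal stability against DMSO controls, with values from duplicates.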

filanesib = compound: CON(C)C(=O)N1N=C(c2cc(F)ccc2F)S[C@@]1(CCCN)c1ccccc1 [filanesib]
Method in brief: as §1

zotarolimus = compound: CO[C@H]1C[C@@H]2CC[C@@H](C)[C@@](O)(O2)C(=O)C(=O)N2CCCC[C@H]2C(=O)O[C@H]([C@H](C)C[C@@H]2CC[C@H](n3cnnn3)[C@H](OC)C2)CC(=O)[C@H](C)/C=C(\C)[C@@H](O)[C@@H](OC)C(=O)[C@H](C)C[C@H](C)/C=C/C=C/C=C/1C [zotarolimus]
Method in brief: as §1

idasanutlin = compound: COc1cc(C(=O)O)ccc1NC(=O)[C@@H]1N[C@@H](CC(C)(C)C)[C@](C#N)(c2ccc(Cl)cc2F)[C@H]1c1cccc(Cl)c1F [idasanutlin]
Method in brief: as §1

alisertib = compound: COc1cc(Nc2ncc3c(n2)-c2ccc(Cl)cc2C(c2c(F)cccc2OC)=NC3)ccc1C(=O)O [alisertib]
Method in brief: as §1

[2] = compound: COc1cc2nc(-c3cc(F)ccc3O)nc(N[C@@H]3CNC[C@H]3C(C)(C)O)c2cc1OC
Method in brief: as §1

gefitinib = compound: COc1cc2ncnc(Nc3ccc(F)c(Cl)c3)c2cc1OCCCN1CCOCC1 [gefitinib]
Method in brief: as §1

[3] = compound: COc1cccc2cc(-c3nc([C@H]4CC[C@H](C(=O)O)CC4)n4ncnc(N)c34)[nH]c12
Method in brief: as §1

lapatinib = compound: CS(=O)(=O)CCNCc1ccc(-c2ccc3ncnc(Nc4ccc(OCc5cccc(F)c5)c(Cl)c4)c3c2)o1 [lapatinib]
Method in brief: as §1

pictilisib = compound: CS(=O)(=O)N1CCN(Cc2cc3nc(-c4cccc5[nH]ncc45)nc(N4CCOCC4)c3s2)CC1 [pictilisib]
Method in brief: as §1

Target | log2 fold change [1] | log2 fold change (filanesib) | log2 fold change (zotarolimus) | log2 fold change (idasanutlin) | log2 fold change (alisertib) | log2 fold change [2] | log2 fold change (gefitinib) | log2 fold change [3] | log2 fold change (lapatinib) | log2 fold change (pictilisib)
PDCD2L (UniProt Q9BRP1) | inactive: 0.085 | inactive: 0.014 | inactive: -0.033 | inactive: -0.031 | inactive: -0.033 | inactive: 0 | inactive: -0.09 | inactive: -0.018 | inactive: -0.048 | inactive: -0.062
PEPD (UniProt P12955) | inactive: 0.063 | inactive: -0.005 | inactive: -0.028 | inactive: -0.014 | inactive: 0.019 | inactive: -0.019 | inactive: -0.019 | inactive: 0.034 | inactive: 0.022 | inactive: 0.106
PDHB (UniProt P11177) | inactive: -0.008 | inactive: 0.05 | inactive: 0.055 | inactive: 0.013 | inactive: -0.06 | inactive: -0.134 | inactive: -0.063 | inactive: -0.177 | inactive: 0.189 | inactive: 0.005
PASK (UniProt Q96RG2) | inactive: -0.018 | inactive: -0.037 | inactive: -0.01 | inactive: -0.091 | inactive: 0.023 | inactive: -0.058 | inactive: 0.01 | inactive: 0.095 | inactive: 0.057 | inactive: 0.02
PDXK (UniProt O00764) | inactive: 0.1 | inactive: 0.003 | inactive: -0.072 | inactive: 0.014 | inactive: -0.114 | inactive: -0.01 | inactive: 0.012 | inactive: 0.044 | inactive: -0.009 | inactive: -0.061
PDPK1 (UniProt O15530) | inactive: -0.015 | inactive: -0.097 | inactive: 0.04 | inactive: -0.048 | inactive: -0.017 | inactive: 0.011 | inactive: -0.028 | inactive: 0.01 | inactive: -0.058 | inactive: -0.179
PDCD10 (UniProt Q9BUL8) | inactive: 0.019 | inactive: -0.085 | inactive: 0.013 | inactive: -0.066 | inactive: -0.03 | inactive: 0.05 | inactive: -0.034 | inactive: 0.088 | inactive: 0.008 | inactive: 0.048
PCM1 isoform 5 (UniProt Q15154) | inactive: 0.013 | inactive: 0.155 | inactive: 0.041 | inactive: 0.203 | inactive: -0.146 | inactive: -0.011 | inactive: -0.021 | inactive: -0.02 | inactive: 0.048 | inactive: 0.001
PET100 (UniProt P0DJ07) | inactive: -0.109 | inactive: 0.056 | inactive: -0.018 | inactive: -0.138 | inactive: -0.021 | inactive: 0.144 | inactive: 0 | inactive: -0.012 | inactive: -0.038 | inactive: -0.011
PDXDC1 (UniProt Q6P996) | inactive: -0.033 | inactive: 0.317 | inactive: 0.116 | inactive: 0.01 | inactive: -0.067 | inactive: -0.068 | inactive: 0.012 | inactive: -0.028 | inactive: 0.249 | inactive: 0.157
PEX11B (UniProt O96011) | inactive: 0.021 | inactive: -0.038 | inactive: -0.009 | inactive: -0.076 | inactive: -0.071 | inactive: -0.063 | inactive: -0.037 | inactive: 0.019 | inactive: 0.023 | inactive: 0.004
PDE12 (UniProt Q6L8Q7) | active: 0.359 | inactive: -0.052 | inactive: 0.044 | inactive: -0.052 | inactive: -0.051 | inactive: 0.014 | inactive: -0.01 | inactive: -0.003 | inactive: -0.007 | inactive: 0.074
PARP16 isoform 3 (UniProt Q8N5Y8) | inactive: -0.029 | inactive: -0.13 | inactive: 0.039 | inactive: -0.056 | inactive: -0.075 | inactive: -0.097 | inactive: 0.011 | inactive: -0.03 | inactive: 0.071 | inactive: -0.008
PDP1 isoform 2 (UniProt Q9P0J1) | inactive: 0.079 | inactive: 0.12 | – | – | – | inactive: 0.072 | – | – | inactive: 0.075 | –
PACSIN2 (UniProt Q9UNF0) | inactive: 0.021 | inactive: 0.004 | inactive: 0.051 | inactive: -0.037 | inactive: 0.057 | inactive: 0.122 | inactive: 0.079 | inactive: -0.038 | inactive: -0.046 | inactive: -0.022
PCTP (UniProt Q9UKL6) | inactive: -0.007 | inactive: -0.175 | inactive: -0.066 | inactive: 0.029 | inactive: -0.081 | active: -0.239 | inactive: -0.024 | inactive: -0.031 | inactive: 0.052 | active: 0.392
PCID2 (UniProt Q5JVF3) | inactive: -0.136 | inactive: -0.025 | inactive: -0.07 | – | inactive: 0.087 | inactive: 0.009 | inactive: 0.039 | inactive: -0.023 | inactive: 0.175 | inactive: 0.013
PCCB isoform 2 (UniProt P05166) | inactive: -0.006 | inactive: 0.014 | inactive: -0.002 | inactive: -0.038 | inactive: -0.005 | inactive: 0.036 | inactive: -0.045 | inactive: 0.028 | inactive: 0.049 | inactive: -0.03
PCYT1A (UniProt P49585) | inactive: 0.006 | inactive: -0.005 | inactive: 0.035 | inactive: -0.015 | inactive: 0.025 | inactive: -0.05 | inactive: -0.012 | inactive: -0.037 | inactive: 0.018 | inactive: 0.03
PDLIM5 (UniProt Q96HC4) | inactive: -0.034 | inactive: -0.039 | inactive: 0.01 | inactive: -0.034 | inactive: 0.016 | inactive: 0.021 | inactive: -0.027 | inactive: 0.053 | inactive: -0.02 | inactive: -0.024
PCIF1 (UniProt Q9H4Z3) | inactive: -0.283 | inactive: 0.115 | – | inactive: 0.031 | inactive: 0.02 | – | inactive: 0.026 | inactive: 0.079 | – | inactive: -0.031
PDIA5 (UniProt Q14554) | inactive: 0.054 | inactive: 0.078 | inactive: 0.011 | inactive: 0.044 | inactive: -0.161 | inactive: -0.01 | inactive: -0.002 | inactive: -0.076 | inactive: 0.064 | inactive: -0.007
PDCD4 (UniProt Q53EL6) | inactive: 0.055 | inactive: -0.153 | inactive: 0.251 | inactive: -0.161 | inactive: -0.025 | inactive: 0.018 | inactive: 0.057 | inactive: 0.16 | inactive: 0.032 | inactive: 0.083
PAFAH2 (UniProt Q99487) | inactive: -0.025 | inactive: -0.089 | inactive: 0.012 | inactive: 0.153 | – | inactive: 0.043 | – | – | inactive: -0.037 | –
PAGE5 (UniProt Q96GU1) | inactive: 0.211 | inactive: 0.333 | inactive: 0.026 | inactive: 0.025 | inactive: -0.08 | inactive: -0.089 | inactive: 0.038 | inactive: 0.055 | inactive: -0.193 | inactive: 0.177
PES1 (UniProt O00541) | inactive: -0.127 | inactive: 0.266 | inactive: 0.09 | inactive: 0.151 | inactive: -0.36 | inactive: 0.053 | inactive: -0.044 | inactive: -0.176 | inactive: 0.026 | inactive: -0.036
PDZD11 isoform 2 (UniProt Q5EBL8) | inactive: 0.003 | inactive: 0.066 | – | – | inactive: 0.007 | inactive: 0.08 | inactive: 0.069 | inactive: -0.114 | inactive: 0.025 | inactive: -0.002
PAFAH1B2 (UniProt P68402) | inactive: 0.044 | inactive: -0.074 | inactive: 0.007 | inactive: 0.082 | inactive: 0.02 | inactive: -0.071 | inactive: 0.086 | inactive: 0.033 | inactive: 0.029 | inactive: -0.28
PBXIP1 (UniProt Q96AQ6) | inactive: -0.009 | inactive: 0.017 | inactive: 0.038 | inactive: 0 | inactive: -0.018 | inactive: -0.024 | inactive: -0.011 | inactive: 0.002 | inactive: 0.002 | inactive: 0.005
PAIP2 (UniProt Q9BPZ3) | inactive: -0.117 | inactive: 0.172 | inactive: -0.002 | inactive: -0.003 | inactive: 0.008 | inactive: 0.042 | inactive: -0.063 | inactive: -0.13 | inactive: -0.012 | inactive: -0.152

Fetched one by one from above:
Target | log2 fold change [1] | log2 fold change (filanesib) | log2 fold change (zotarolimus) | log2 fold change (idasanutlin) | log2 fold change (alisertib) | log2 fold change [2] | log2 fold change (gefitinib) | log2 fold change [3] | log2 fold change (lapatinib) | log2 fold change (pictilisib)
PACSIN2 (UniProt Q9UNF0) | inactive: 0.021 | inactive: 0.004 | inactive: 0.051 | inactive: -0.037 | inactive: 0.057 | inactive: 0.122 | inactive: 0.079 | inactive: -0.038 | inactive: -0.046 | inactive: -0.022
PAIP2 (UniProt Q9BPZ3) | inactive: -0.117 | inactive: 0.172 | inactive: -0.002 | inactive: -0.003 | inactive: 0.008 | inactive: 0.042 | inactive: -0.063 | inactive: -0.13 | inactive: -0.012 | inactive: -0.152
